PubChem BioAssay AID1224826, NIAID, 2016
Here is an unselected part of about 17,000 reagents tested. About 1,110 of them (6.6%) were called active. 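Active means lowered or raised reporter signal; replicate intensities are raw and not normalised per plate.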 Not all columns of the deposit are shown.

Aim: 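Regulators of Tlr4 signalling leading to Tnf-alpha expression in macrophages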 (primary screen)
System: RAW264.7 G9 macrophages from mouse bearing reporters for p65 (GFP) and the Tnf promoter (mCherry)
Reagents: siRNA pool against mouse genes, 100 nM
Timing: 16 h of LPS stimulation, after 2 days of siRNA transfection
Challenge: bacterial lipopolysaccharide (Salmonella minnesota R595), 10 ng/ml
Read-out: 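Imaged Tnf reporter mCherry in nuclei, minus background, normalised per plate to the median and expressed as robust z-scores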
Reading the numbers: Tnf reporter robust z-score: higher = stronger Tnf promoter reporter signal after LPS
Hit rule: 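a well counts as active at a score of -1.3 or below (Tlr4 knock-down control median) or above 3 (raised signal); controls and wells holding fewer than 50 cells are excluded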
Calls: active = Tnf reporter clearly lowered or raised; inactive = no clear change in Tnf reporter

With knock-down of Cpsf3 (GeneID 54451), the record shows Tnf reporter robust z-score -0.43; fewer than 50 cells in well enough cells in well; inactive.
Depletion of Fst (GeneID 14313) came out at: Tnf reporter robust z-score 0.19; fewer than 50 cells in well enough cells in well; inactive.
Qprt (GeneID 67375) gave Tnf reporter robust z-score 0.24; fewer than 50 cells in well enough cells in well; inactive.
Against Anks1b (GeneID 77531), the values are Tnf reporter robust z-score 0.1; fewer than 50 cells in well enough cells in well; inactive.
Against Fzd6 (GeneID 14368), the entry reads Tnf reporter robust z-score -0.1; fewer than 50 cells in well enough cells in well; inactive.
Knock-down of Mnd1 (GeneID 76915) gave: Tnf reporter robust z-score -1.39; fewer than 50 cells in well enough cells in well; active.
Against Tff2 (GeneID 21785) the deposit lists fewer than 50 cells in well fewer than 50 cells per well; well left out of calls; inactive.
After knock-down of P2rx5 (GeneID 94045), the screen gave Tnf reporter robust z-score 2.01; fewer than 50 cells in well enough cells in well; inactive.
For Tnfrsf1a (GeneID 21937), the values are Tnf reporter robust z-score -1.48; fewer than 50 cells in well enough cells in well; active.
Against Catsperg2 (GeneID 76718), the values are Tnf reporter robust z-score 0.51; fewer than 50 cells in well enough cells in well; inactive.
With knock-down of Enpp6 (GeneID 320981), the record shows Tnf reporter robust z-score -0.46; fewer than 50 cells in well enough cells in well; inactive.
Silencing of Slc10a3 (GeneID 214601) resulted in: Tnf reporter robust z-score -0.26; fewer than 50 cells in well enough cells in well; inactive.
With knock-down of Nipsnap2 (GeneID 14467) the results were Tnf reporter robust z-score -0.29; fewer than 50 cells in well enough cells in well; inactive.
Against Bcl2a1a (GeneID 12044), the values are fewer than 50 cells in well fewer than 50 cells per well; well left out of calls; inactive.
Serpina10 (GeneID 217847) scored Tnf reporter robust z-score -0.35; fewer than 50 cells in well enough cells in well; inactive.
Knock-down of Vmn1r22 (GeneID 171196) came out at: Tnf reporter robust z-score 0.82; fewer than 50 cells in well enough cells in well; inactive.
Zfp12 (GeneID 231866) gave Tnf reporter robust z-score 0.71; fewer than 50 cells in well enough cells in well; inactive.
Nmral1 (GeneID 67824) gave Tnf reporter robust z-score -0.34; fewer than 50 cells in well enough cells in well; inactive.

Laid out differently: results already given.
Cpsf3 (GeneID 54451)
- Tnf reporter robust z-score: -0.43
- fewer than 50 cells in well: enough cells in well
- outcome: inactive

Fst (GeneID 14313)
- Tnf reporter robust z-score: 0.19
- fewer than 50 cells in well: enough cells in well
- outcome: inactive

Qprt (GeneID 67375)
- Tnf reporter robust z-score: 0.24
- fewer than 50 cells in well: enough cells in well
- outcome: inactive

Anks1b (GeneID 77531)
- Tnf reporter robust z-score: 0.1
- fewer than 50 cells in well: enough cells in well
- outcome: inactive

The list goes on.
After knock-down of Cps1 (GeneID 227231), the screen gave Tnf reporter robust z-score 0; fewer than 50 cells in well enough cells in well; inactive.
After knock-down of Jtb (GeneID 23922), the screen gave Tnf reporter robust z-score -0.36; fewer than 50 cells in well enough cells in well; inactive.
Silencing of Ap1m1 (GeneID 11767) resulted in: Tnf reporter robust z-score 0.15; fewer than 50 cells in well enough cells in well; inactive.
Ifi205 (GeneID 226695) scored Tnf reporter robust z-score 1.87; fewer than 50 cells in well enough cells in well; inactive.
After knock-down of Ghrhr (GeneID 14602) the results were Tnf reporter robust z-score 0.64; fewer than 50 cells in well enough cells in well; inactive.
For A030005K14Rik (GeneID 77921), the values are Tnf reporter robust z-score -1.04; fewer than 50 cells in well enough cells in well; inactive.
Silencing of Ppox (GeneID 19044) gave: Tnf reporter robust z-score 0.45; fewer than 50 cells in well enough cells in well; inactive.
Depletion of Cep83os (GeneID 67723) gave: fewer than 50 cells in well fewer than 50 cells per well; well left out of calls; inactive.
For Etv2 (GeneID 14008), the values are Tnf reporter robust z-score 1.46; fewer than 50 cells in well enough cells in well; inactive.
